From patent US20190234942A1
No constants are given. Whether binding was seen depends on the method and setting. For some assays here: Binding seen in cells or lysates may run through a third protein. Some entries that bind do so weakly or less than the wild type. For some assays here: Tags and fused reporters may be left off the sequences shown.

Protein sequences, listed by entry. Tags and fused reporters are not part of them. Lines headed by an entry give the natural chain unless they say otherwise; changes in a name come on top.
UniProt O75140: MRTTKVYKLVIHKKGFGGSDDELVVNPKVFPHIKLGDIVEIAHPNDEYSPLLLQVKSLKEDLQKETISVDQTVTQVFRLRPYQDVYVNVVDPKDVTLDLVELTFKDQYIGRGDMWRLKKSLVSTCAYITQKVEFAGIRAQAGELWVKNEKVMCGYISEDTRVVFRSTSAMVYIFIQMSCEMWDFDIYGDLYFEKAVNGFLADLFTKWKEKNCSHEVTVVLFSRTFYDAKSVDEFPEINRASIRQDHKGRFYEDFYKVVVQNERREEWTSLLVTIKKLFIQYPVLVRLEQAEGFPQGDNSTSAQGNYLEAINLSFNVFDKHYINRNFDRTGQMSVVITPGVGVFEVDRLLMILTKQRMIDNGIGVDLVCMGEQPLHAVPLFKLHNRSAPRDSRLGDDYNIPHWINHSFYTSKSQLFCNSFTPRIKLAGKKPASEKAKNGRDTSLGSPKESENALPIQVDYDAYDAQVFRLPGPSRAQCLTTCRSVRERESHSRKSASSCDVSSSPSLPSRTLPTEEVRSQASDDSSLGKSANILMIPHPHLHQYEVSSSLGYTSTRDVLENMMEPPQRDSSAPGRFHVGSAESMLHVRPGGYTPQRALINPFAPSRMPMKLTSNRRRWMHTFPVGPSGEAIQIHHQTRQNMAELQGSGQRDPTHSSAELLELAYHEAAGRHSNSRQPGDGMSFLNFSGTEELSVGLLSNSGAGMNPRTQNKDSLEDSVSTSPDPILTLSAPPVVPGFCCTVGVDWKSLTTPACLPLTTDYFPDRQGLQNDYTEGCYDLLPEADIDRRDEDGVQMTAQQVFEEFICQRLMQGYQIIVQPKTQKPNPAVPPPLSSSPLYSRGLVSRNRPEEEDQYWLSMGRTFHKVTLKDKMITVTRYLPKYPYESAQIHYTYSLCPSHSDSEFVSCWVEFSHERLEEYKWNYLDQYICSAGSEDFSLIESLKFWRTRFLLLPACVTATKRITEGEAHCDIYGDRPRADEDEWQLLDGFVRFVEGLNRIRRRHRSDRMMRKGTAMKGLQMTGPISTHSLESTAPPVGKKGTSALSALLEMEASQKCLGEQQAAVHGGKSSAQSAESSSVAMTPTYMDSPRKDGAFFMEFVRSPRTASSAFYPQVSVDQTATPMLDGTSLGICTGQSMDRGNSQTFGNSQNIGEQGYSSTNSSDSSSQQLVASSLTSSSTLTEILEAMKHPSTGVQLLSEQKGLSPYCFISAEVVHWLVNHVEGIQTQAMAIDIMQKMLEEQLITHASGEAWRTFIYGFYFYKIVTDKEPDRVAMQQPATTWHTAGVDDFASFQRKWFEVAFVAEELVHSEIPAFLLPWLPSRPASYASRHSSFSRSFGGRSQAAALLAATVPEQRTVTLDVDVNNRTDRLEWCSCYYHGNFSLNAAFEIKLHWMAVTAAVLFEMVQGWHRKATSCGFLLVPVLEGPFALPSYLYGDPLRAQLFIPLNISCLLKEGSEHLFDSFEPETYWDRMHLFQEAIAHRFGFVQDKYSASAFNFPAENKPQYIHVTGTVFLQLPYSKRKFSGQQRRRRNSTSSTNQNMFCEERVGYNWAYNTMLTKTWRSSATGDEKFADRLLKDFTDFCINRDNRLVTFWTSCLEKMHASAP
UniProt Q9Y664: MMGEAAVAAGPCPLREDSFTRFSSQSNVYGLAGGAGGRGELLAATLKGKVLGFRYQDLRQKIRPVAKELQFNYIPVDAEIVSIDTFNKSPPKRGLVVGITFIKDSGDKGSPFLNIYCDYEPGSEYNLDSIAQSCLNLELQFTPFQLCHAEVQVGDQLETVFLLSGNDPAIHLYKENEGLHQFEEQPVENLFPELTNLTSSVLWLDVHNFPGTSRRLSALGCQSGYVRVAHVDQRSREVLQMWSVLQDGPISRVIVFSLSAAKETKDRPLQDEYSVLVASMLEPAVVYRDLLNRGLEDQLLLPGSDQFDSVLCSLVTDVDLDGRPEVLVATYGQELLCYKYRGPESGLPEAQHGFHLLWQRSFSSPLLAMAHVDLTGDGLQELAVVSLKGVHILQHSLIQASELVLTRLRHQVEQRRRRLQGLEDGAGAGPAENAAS

Experiments:
[1] = target: GATOR1 complex (Depdc5, Npr13, Npr12) (UniProt O75140); assay: co-immunoprecipitation: anti-FLAG IP from HEK-293T with endogenously FLAG-tagged Depdc5, immunoblot for endogenous SAMTOR
[2] = target: GATOR1-KICSTOR supercomplex (UniProt O75140); assay: in vitro dissociation assay on anti-FLAG (Depdc5) immunoprecipitates, immunoblot
[3] = target: GATOR1 complex (Depdc5, Npr13, Npr12) (UniProt O75140); assay: in vitro dissociation assay: anti-FLAG IP of endogenous FLAG-Depdc5 from HEK-293T, compounds added to the immunoprecipitate, immunoblot for SAMTOR
[4] = target: GATOR1 complex (Depdc5, Npr13, Npr12) (UniProt O75140); assay: in vitro dissociation assay on anti-FLAG (Depdc5) immunoprecipitates, immunoblot, FIG. 3C and 3D
[5] = target: GATOR1 complex (Depdc5, Npr13, Npr12) (UniProt O75140); assay: anti-FLAG co-IP from HEK-293T cells with endogenously FLAG-tagged Depdc5, immunoblot for SAMTOR
[6] = target: KICSTOR complex (Kaptin, ITFG2, C12orf66, SZT2) (UniProt Q9Y664); assay: anti-FLAG co-IP from HEK-293T cells stably expressing FLAG-Kaptin, immunoblot for SAMTOR
[7] = target: GATOR1 complex (Depdc5, Npr13, Npr12) (UniProt O75140); assay: in vitro dissociation assay: anti-FLAG IP of endogenous FLAG-Depdc5 from HEK-293T, SAM or SAH (0-300 µM) added to the immunoprecipitate, immunoblot for SAMTOR
[8] = target: GATOR1 complex (Depdc5, Npr13, Npr12) (UniProt O75140); assay: anti-FLAG co-IP (endogenously FLAG-tagged Depdc5), immunoblot, FIG. 1A
[9] = target: KICSTOR complex (Kaptin, ITFG2, C12orf66, SZT2) (UniProt Q9Y664); assay: co-immunoprecipitation: anti-FLAG IP from HEK-293T stably expressing FLAG-Kaptin, immunoblot for endogenous SAMTOR
[10] = target: KICSTOR complex (Kaptin, ITFG2, C12orf66, SZT2) (UniProt Q9Y664); assay: anti-FLAG co-IP (FLAG-Kaptin), immunoblot, FIG. 1A
[11] = target: GATOR1 complex (Depdc5, Npr13, Npr12) (UniProt O75140); assay: co-immunoprecipitation: anti-HA IP from transfected HEK-293T, with or without 100 µM SAM added to the immunoprecipitate, immunoblot for endogenous Nprl3
[12] = target: KICSTOR complex (Kaptin, ITFG2, C12orf66, SZT2) (UniProt Q9Y664); assay: co-immunoprecipitation: anti-HA IP from transfected HEK-293T, with or without 100 µM SAM added to the immunoprecipitate, immunoblot for endogenous SZT2
[13] = target: GATOR1 complex (Depdc5, Npr13, Npr12) (UniProt O75140); assay: anti-HA co-IP from HEK-293T cells, immunoblot, FIG. 4B
[14] = target: KICSTOR complex (Kaptin, ITFG2, C12orf66, SZT2) (UniProt Q9Y664); assay: anti-HA co-IP from HEK-293T cells, immunoblot, FIG. 3F; wild type is the reference
[15] = target: GATOR1 complex (Depdc5, Npr13, Npr12) (UniProt O75140); assay: as above
[16] = target: GATOR1-KICSTOR supercomplex (UniProt O75140); assay: anti-HA co-IP from HEK-293T cells kept in RPMI, starved of methionine, or restimulated; immunoblot
[17] = target: KICSTOR complex (Kaptin, ITFG2, C12orf66, SZT2) (UniProt Q9Y664); assay: anti-HA co-IP from HEK-293T cells, immunoblot; wild type is the reference
[18] = target: GATOR1 complex (Depdc5, Npr13, Npr12) (UniProt O75140); assay: as above
[19] = target: GATOR1 complex (Depdc5, Npr13, Npr12) (UniProt O75140); assay: co-immunoprecipitation: anti-HA IP from HEK-293T expressing HA-SAMTOR, in RPMI, starved of methionine for 2 h, or restimulated with 100 µM methionine or 1 mM SAM; immunoblot for endogenous Nprl3
[20] = target: KICSTOR complex (Kaptin, ITFG2, C12orf66, SZT2) (UniProt Q9Y664); assay: anti-HA co-IP from HEK-293T cells, immunoblot, FIG. 3F
[21] = target: GATOR1 complex (Depdc5, Npr13, Npr12) (UniProt O75140); assay: as above
[22] = target: KICSTOR complex (Kaptin, ITFG2, C12orf66, SZT2) (UniProt Q9Y664); assay: anti-HA co-IP from HEK-293T cells, immunoblot
[23] = target: GATOR1 complex (Depdc5, Npr13, Npr12) (UniProt O75140); assay: anti-HA co-IP from HEK-293T cells, immunoblot
[24] = target: KICSTOR complex (Kaptin, ITFG2, C12orf66, SZT2) (UniProt Q9Y664); assay: anti-FLAG co-IP from HEK-293T cells, immunoblot, FIG. 1B
[25] = target: GATOR1 complex (Depdc5, Npr13, Npr12) (UniProt O75140); assay: as above
[26] = target: GATOR1-KICSTOR supercomplex (UniProt O75140); assay: anti-FLAG co-IP from wild-type and component-deficient HEK-293T cells
[27] = target: KICSTOR complex (Kaptin, ITFG2, C12orf66, SZT2) (UniProt Q9Y664); assay: anti-FLAG co-IP from HEK-293T cells, immunoblot for SZT2
[28] = target: GATOR1 complex (Depdc5, Npr13, Npr12) (UniProt O75140); assay: co-immunoprecipitation: anti-FLAG IP of transfected FLAG-SAMTOR from wild-type, sgNprl3, sgSZT2 or sgWDR24 HEK-293T, immunoblot for endogenous Nprl3
[29] = target: GATOR1 complex (Depdc5, Npr13, Npr12) (UniProt O75140); assay: anti-FLAG co-IP from HEK-293T cells, immunoblot for Npr13
[30] = target: KICSTOR complex (Kaptin, ITFG2, C12orf66, SZT2) (UniProt Q9Y664); assay: co-immunoprecipitation: anti-FLAG IP of transfected FLAG-SAMTOR from wild-type, sgNprl3, sgSZT2 or sgWDR24 HEK-293T, immunoblot for endogenous SZT2

Measured: binding

B1: SAMTOR (S-adenosylmethionine sensor upstream of mTORC1), endogenous protein in HEK-293T cells (protein, human, UniProt Q1RMZ1 1-405, looked up)
chain: MEPGAGGRNTARAQRAGSPNTPPPREQERKLEQEKLSGVVKSVHRRLRKKYREVGDFDKIWREHCEDEETLCEYAVAMKNLADNHWAKTCEGEGRIEWCCSVCREYFQNGGKRKALEKDEKRAVLATKTTPALNMHESSQLEGHLTNLSFTNPEFITELLQASGKIRLLDVGSCFNPFLKFEEFLTVGIDIVPAVESVYKCDFLNLQLQQPLQLAQDAIDAFLKQLKNPIDSLPGELFHVVVFSLLLSYFPSPYQRWICCKKAHELLVLNGLLLIITPDSSHQNRHAMMMKSWKIAIESLGFKRFKYSKFSHMHLMAFRKISLKTTSDLVSRNYPGMLYIPQDFNSIEDEEYSNPSCYVRSDIEDEQLAYGFTELPDAPYDSDSGESQASSIPFYELEDPILLLS
binds: [1] | [2] | [3] | [4] | [5] | [6] | [7] | [8] | [9] | [10]

B2: HA-SAMTOR wild-type (transiently expressed from pRK5) (protein, human, UniProt Q1RMZ1 1-405, looked up, not shown: small tags and cut ends)
chain: MEPGAGGRNTARAQRAGSPNTPPPREQERKLEQEKLSGVVKSVHRRLRKKYREVGDFDKIWREHCEDEETLCEYAVAMKNLADNHWAKTCEGEGRIEWCCSVCREYFQNGGKRKALEKDEKRAVLATKTTPALNMHESSQLEGHLTNLSFTNPEFITELLQASGKIRLLDVGSCFNPFLKFEEFLTVGIDIVPAVESVYKCDFLNLQLQQPLQLAQDAIDAFLKQLKNPIDSLPGELFHVVVFSLLLSYFPSPYQRWICCKKAHELLVLNGLLLIITPDSSHQNRHAMMMKSWKIAIESLGFKRFKYSKFSHMHLMAFRKISLKTTSDLVSRNYPGMLYIPQDFNSIEDEEYSNPSCYVRSDIEDEQLAYGFTELPDAPYDSDSGESQASSIPFYELEDPILLLS
binds: [11] | [12] | [13] | [14] | [15] | [16] | [17] | [18] | [19]

B3: HA-SAMTOR(D190A) (protein, human, UniProt Q1RMZ1 1-405, looked up, not shown: small tags and cut ends)
chain: MEPGAGGRNTARAQRAGSPNTPPPREQERKLEQEKLSGVVKSVHRRLRKKYREVGDFDKIWREHCEDEETLCEYAVAMKNLADNHWAKTCEGEGRIEWCCSVCREYFQNGGKRKALEKDEKRAVLATKTTPALNMHESSQLEGHLTNLSFTNPEFITELLQASGKIRLLDVGSCFNPFLKFEEFLTVGIAIVPAVESVYKCDFLNLQLQQPLQLAQDAIDAFLKQLKNPIDSLPGELFHVVVFSLLLSYFPSPYQRWICCKKAHELLVLNGLLLIITPDSSHQNRHAMMMKSWKIAIESLGFKRFKYSKFSHMHLMAFRKISLKTTSDLVSRNYPGMLYIPQDFNSIEDEEYSNPSCYVRSDIEDEQLAYGFTELPDAPYDSDSGESQASSIPFYELEDPILLLS
binds: [11] | [12] | [20] | [21] | [22] | [23]

B4: HA-SAMTOR(G172A) (protein, human, UniProt Q1RMZ1 1-405, looked up, not shown: small tags and cut ends)
chain: MEPGAGGRNTARAQRAGSPNTPPPREQERKLEQEKLSGVVKSVHRRLRKKYREVGDFDKIWREHCEDEETLCEYAVAMKNLADNHWAKTCEGEGRIEWCCSVCREYFQNGGKRKALEKDEKRAVLATKTTPALNMHESSQLEGHLTNLSFTNPEFITELLQASGKIRLLDVASCFNPFLKFEEFLTVGIDIVPAVESVYKCDFLNLQLQQPLQLAQDAIDAFLKQLKNPIDSLPGELFHVVVFSLLLSYFPSPYQRWICCKKAHELLVLNGLLLIITPDSSHQNRHAMMMKSWKIAIESLGFKRFKYSKFSHMHLMAFRKISLKTTSDLVSRNYPGMLYIPQDFNSIEDEEYSNPSCYVRSDIEDEQLAYGFTELPDAPYDSDSGESQASSIPFYELEDPILLLS
binds: [11] | [12] | [20] | [21] | [22] | [23]

B5: FLAG-SAMTOR (transiently expressed from pRK5) (protein, human, UniProt Q1RMZ1 1-405, looked up, not shown: small tags and cut ends)
chain: MEPGAGGRNTARAQRAGSPNTPPPREQERKLEQEKLSGVVKSVHRRLRKKYREVGDFDKIWREHCEDEETLCEYAVAMKNLADNHWAKTCEGEGRIEWCCSVCREYFQNGGKRKALEKDEKRAVLATKTTPALNMHESSQLEGHLTNLSFTNPEFITELLQASGKIRLLDVGSCFNPFLKFEEFLTVGIDIVPAVESVYKCDFLNLQLQQPLQLAQDAIDAFLKQLKNPIDSLPGELFHVVVFSLLLSYFPSPYQRWICCKKAHELLVLNGLLLIITPDSSHQNRHAMMMKSWKIAIESLGFKRFKYSKFSHMHLMAFRKISLKTTSDLVSRNYPGMLYIPQDFNSIEDEEYSNPSCYVRSDIEDEQLAYGFTELPDAPYDSDSGESQASSIPFYELEDPILLLS
binds: [24] | [25] | [26] | [27] | [28] | [29] | [30]
